PubChem BioAssay AID743121, NCATS | 2013
The whole screen tested about 26,000 reagents; shown is a part drawn at random. In the full data, 167 (0.63%) got an active call. 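Calls are per gene from RSA p-values that are not deposited; an individual active-marked siRNA can sensitise only weakly.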 Unmarked entries are inactive. Reagents against one gene are numbered here. Not all columns of the deposit are shown.

Purpose: 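Knock-downs that sensitise breast cancer cells to camptothecin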 (primary screen)
Cell system: MDA-MB-231 cells, a human breast cancer line
Reagent: single siRNA against human genes, 20 nM siRNA (0.8 pmol per well)
Timing: 120 h (drug added 48 h after transfection, read 72 h later)
Challenge: camptothecin 20 nM (about EC30) for 72 h; vehicle 0.1% DMSO in parallel plates
Measurement: 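Cell viability by ATP luminescence (CellTiter-Glo) as % of non-targeting siRNA wells, and the log2 ratio of viability without drug over viability with camptothecin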
Direction: log2 vehicle/camptothecin viability: higher = stronger sensitisation to camptothecin
Active means: 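Each gene scored by redundant siRNA activity (RSA) over its individual siRNA ratios; a gene is called active at p < 0.001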

HCRTR1 (hypocretin receptor 1) #1 showed log2 vehicle/camptothecin viability 0.11.
With knock-down of HCRTR1 (hypocretin receptor 1) #2, the record shows log2 vehicle/camptothecin viability -0.105.
With knock-down of HCRTR1 (hypocretin receptor 1) #3, the screen gave log2 vehicle/camptothecin viability -0.0237.
After knock-down of SLC5A1 #1, the screen gave log2 vehicle/camptothecin viability -0.457.
Silencing of SLC5A1 #2 gave: log2 vehicle/camptothecin viability 0.299.
For SLC5A1 #3 the deposit lists log2 vehicle/camptothecin viability -0.115.
SLC5A1 #4 showed log2 vehicle/camptothecin viability -0.282.
Against OR8D1 (olfactory receptor family 8 subfamily D member 1) #1, the entry reads log2 vehicle/camptothecin viability 0.078.
Depletion of OR8D1 (olfactory receptor family 8 subfamily D member 1) #2 came out at: log2 vehicle/camptothecin viability -0.173.
OR8D1 (olfactory receptor family 8 subfamily D member 1) #3 scored log2 vehicle/camptothecin viability 0.333.
Silencing of OR8D1 (olfactory receptor family 8 subfamily D member 1) #4 gave: log2 vehicle/camptothecin viability 0.0587.
SLC6A18 #1 gave log2 vehicle/camptothecin viability 0.0344.
Knock-down of SLC6A18 #2 gave: log2 vehicle/camptothecin viability -0.109.
After knock-down of SLC6A18 #3, the record shows log2 vehicle/camptothecin viability -0.423.
UBAC2 (UBA domain containing 2) #1 showed log2 vehicle/camptothecin viability 0.538.
Against UBAC2 (UBA domain containing 2) #2, the values are log2 vehicle/camptothecin viability -0.00233.
UBAC2 (UBA domain containing 2) #3 scored log2 vehicle/camptothecin viability -0.476.
Silencing of UBAC2 (UBA domain containing 2) #4 came out at: log2 vehicle/camptothecin viability 0.215.
For ACP5 (acid phosphatase 5, tartrate resistant) #1, the values are log2 vehicle/camptothecin viability -0.103.
Silencing of ACP5 (acid phosphatase 5, tartrate resistant) #2 resulted in: log2 vehicle/camptothecin viability -0.191.
Knock-down of ACP5 (acid phosphatase 5, tartrate resistant) #3 resulted in: log2 vehicle/camptothecin viability -0.427.
ACP5 (acid phosphatase 5, tartrate resistant) #4 gave log2 vehicle/camptothecin viability -0.0468.
PSMA8 (proteasome 20S subunit alpha 8) #1 gave log2 vehicle/camptothecin viability -0.533.
With knock-down of PSMA8 (proteasome 20S subunit alpha 8) #2 the results were log2 vehicle/camptothecin viability -0.0433.
PSMA8 (proteasome 20S subunit alpha 8) #3 scored log2 vehicle/camptothecin viability -0.376.
Silencing of PSMA8 (proteasome 20S subunit alpha 8) #4 came out at: log2 vehicle/camptothecin viability -0.576.
